{"source": "patent US9586993B2", "about": "“CD44v6-derived peptides for treating pancreatic cancer” (AMCURE GMBH, priority 2012, dated 2017)", "key": {"[1]": {"system": "L3.6p1 pancreatic carcinoma cells", "assay": "Human orthotopic model, L3.6p1 cells in the pancreas of nude mice", "format": "in vivo, mouse", "protocol": "In the case of the human orthotopic model, L3.6p1 pancreatic carcinoma cells (passage 24-26) were suspended in Hank's balanced salt solution (Invitrogen, Karlsruhe, Germany) after trypsinization. The cells were injected orthotopically in the pancreas of male nude mice as described (Bruns C J et al. (1999) Neoplasia 1(1):50-62). Two groups of 15 mice each were injected i.p. 7 days later with either the human v6 peptide respectively rat control peptide (20 μg). For all experiments described and depicted herein either the rat 14mer control peptide or the human 14mer peptide were used. All experiments were then repeated with the rat 5mer control peptide or the human 5mer peptide (N-R-W-H-E, SEQ ID NO: 2). […] The injection was repeated three times per week for 21 days. Two days after the last treatment the animals were killed.\n7 μm thick paraffin sections were deparaffinized and rehydrated. For P-Met staining antigen unmasking was achieved by boiling the slides in 1 mM EDTA pH 8.0 followed by incubation for 15 minutes at a sub-boiling temperature, for CD31 staining the sections were treated with Proteinase K (8 μg/ml) for 10 min at 37° C. For immunofluorescence staining of P-Met, unspecific binding was blocked with 5% goat serum (DAKO, Glostrup, Denmark) (diluted in 1×PBS/0.3% Triton X-100) for 60 minutes. In the case of immunohistochemistry, endogenous peroxidases were at first blocked with 3% H2O2 in PBS followed by incubation with biotin blocking system (Dako, Glostrup, Denmark) and then unspecific binding was inhibited by incubation with 5% FCS in PBS. The sections were incubated with the P-Met antibody (D26, dilution 1:50 in 1×PBS/1% BSA/0.3% Triton X-100), Met antibody (C-28, dilution 1:50), GFP antibody (sc-101525, dilution 1:50) or antibody (5 μg/ml) over night or VFF18 (5 μg/ml) o/n at 4° C. After washing in PBS the sections were incubated with Alexa Fluor R 546 goat anti-rabbit (in case of immunofluorescence P-Met and Met staining, dilution 1:500) or a biotinylated secondary antibody (for immunohistochemical stainings rabbit anti-rat antibody for VFF18 and CD31, goat anti-rabbit for P-Met, cleaved Caspase-3 and cleaved Caspase-8 and rabbit anti-mouse for GFP, dilution 1:500) for 45 minutes. For DAB (3,3′-diaminobenzidine) staining the sections were treated with a streptavidin-peroxidase conjugate (Dako, Glostrup, Denmark) and developed with DAB substrate system (3,3′-diaminobenzidine; Biozol, Eching, Germany) For immunofluorescence DAPI was used for nuclear staining.\nThe three CD44v6 specific compounds (v6 5mer, PEG840-v6 5mer and PEG2000-v6 5mer of human origin) and a control peptide were applied in three concentrations (2 μg, 20 μg, 200 μg per injection) three times per week i.p. for 4 weeks. One week before start of the treatment the L3.6p1 tumor cells were orthotopically implanted into nude mice.\nAnimals were implanted orthotopically with L3.6p1 cells. Tumor growth was allowed for one week before the treatment with the linear v6 14mer, the cyclic v6 8mer as well as the control peptide (rat v6 14mer) was started. All peptides were injected three times per week at a concentration of 0.2, 2 and 10 μg per injection for 3 weeks. At the end of the treatment animals were sacrificed.\nA comparison of different CD44v6 peptide derivatives was performed in animals bearing a orthotopic L3.6p1 tumor. 10 groups of 5 animals each received a dose of 20 μg peptide per injection three times per week for 3 weeks with the compounds listed in Table 4. Three weeks after starting the treatment the animals were sacrificed and analyzed for macroscopic metastases and tumor volume."}, "L3.6p1 cells": {"system": "L3.6p1 cells", "assay": "Regression of established metastases, L3.6p1 orthotopic mouse model", "format": "in vivo", "conditions": "20 μg i.p., treatment started three weeks after cell injection, another three weeks"}, "Erk phosphorylation": {"system": "Erk phosphorylation", "assay": "EGF- and TGFα-induced Erk phosphorylation in MCF7 cells", "format": "cell-based, human"}, "[2]": {"system": "Met activation and downstream signaling to ERK", "assay": "HGF-induced activation of Met and ERK in L3.6p1 cells (western blot)", "format": "cell-based, human", "conditions": "HGF 10 ng/ml", "protocol": "Serum-starved cells (24 hours) were induced with the growth factor HGF (10 ng/mL) at 37° C. for 5 minutes. Where indicated, the cells were treated with peptides (100 ng/ml) prior to induction at 37° C. for 10 minutes (100 ng/mL CD44v6 peptide or control peptide). Following the induction with HGF, cells were washed with ice-cold phosphate-buffered saline (PBS). To detect activated Met and Erk, cells were lysed in sodium dodecyl sulfate (SDS)-sample buffer containing 100 mM dithiothreitol (DTT), boiled and subjected to western blot analysis using antibodies against phospho-Met and ERK. The loading controls were performed on the same blot after stripping (62.5 mM Tris, pH 6.8, 2% SDS, 0.8% DTT) by probing with the Met respectively ERK antibody. Blots were stained using the enhanced chemiluminescence system (Thermo Fisher Scientific, Schwerte, Germany). Bands in western blot analysis were quantified with the program Image J (National Institutes of Health).\nTo expand the studies to human pancreatic tumors, the highly metastatic human pancreatic carcinoma cells L3.6p1 (Bruns, et al. Neoplasia (1999), 1(1):50-62) were investigated. […] The L3.6p1 cells were treated with HGF in the presence or absence of a human v6 peptide of SEQ ID NO: 2 or SEQ ID NO:6 and Met activation and downstream signaling to ERK was measured."}, "ErbB receptors": {"system": "ErbB receptors", "assay": "ErbB ligand-induced Erk-kinase phosphorylation in HT29 cells", "format": "cell-based, human", "conditions": "100 ng/ml peptide, 20 ng/ml EGF", "protocol": "(§1) Serum-starved HT29 cells were pre-incubated for 5 min with 100 ng/ml of a CD44v6-specific peptide (human v6 14mer) or a control peptide. Afterwards the cells were induced with 20 ng/ml of various ErbB ligands as indicated. The cell lysates were resolved by SDS-PAGE. Western-blotting was used to detect ErbB ligands-induced Erk-kinase phosphorylation.\nas §1, with “of” for “of a”, “(pep1=14mer, pep2=5mer)” for “(human v6 14mer)”, “EGF or TGFα and lysed.” for “various ErbB ligands as indicated.”, “EGF and TGFα induced” for “ErbB ligands-induced”\nFor this purpose HT29 cells were serum-starved for 24 hours and pre-treated with the v6-specific or a control peptide. They were then induced with the indicated ErbB ligands. Erk-kinase phosphorylation was used as a read-out for receptor activation. All ligands could activate the Erk-kinase."}, "[3]": {"conditions": "2 μg, 20 μg, 200 μg per injection i.p. three times per week for 4 weeks"}}, "note": "At least one peptide structure holds a part that was inferred or is arguable (an end, a ring closure or a residue). No end group written: not given here."}
{"substance": "NRWHE [human 5mer, NRWHE]", "values": [{"measurement": "metastasis formation (liver)", "setting": "[1]; 2 μg per injection i.p. three times per week", "value": "inhibitory effects were already observed"}, {"measurement": "metastatic spreading of tumor cells", "setting": "[1]; [3]", "value": "prevented metastatic spreading of tumor cells"}, {"measurement": "primary tumor growth", "setting": "[1]; [3]", "value": "reduction of primary tumor growth"}, {"measurement": "results in the human orthotopic model compared with the 14mer peptides", "setting": "[1]; 20 μg i.p. three times per week for 21 days", "value": "same results as for the 14mer peptides were observed"}, {"measurement": "metastasis formation (liver)", "setting": "[1]; 20 μg per injection i.p. three times per week, start one week after implantation, listed as N-R-W-H-E (SEQ ID NO: 2)", "value": "capable of inhibiting metastasis"}, {"measurement": "metastasis formation (liver)", "setting": "[1]; 20 μg per injection i.p. three times per week, start one week after implantation, listed as v6 5mer", "value": "complete block of metastasis"}, {"measurement": "already established liver metastases at end of treatment", "setting": "L3.6p1 cells", "value": "eliminate already established metastases"}, {"measurement": "Erk phosphorylation upon EGF treatment", "setting": "Erk phosphorylation", "value": "blocking of Erk phosphorylation"}, {"measurement": "Erk phosphorylation upon TGFα induction", "setting": "Erk phosphorylation", "value": "not upon TGFα induction"}, {"measurement": "inhibition of HGF-induced activation (phosphorylation) of Met and ERK", "setting": "[2]", "value": "Phosphorylation of both Met and ERK was inhibited"}, {"measurement": "inhibition of EGF-dependent Erk phosphorylation", "setting": "ErbB receptors", "value": "can be blocked"}]}
